According to PMC4873981:
These are yes or no findings as the source states them, for the method shown. In cells and extracts the contact can be indirect. Some results given as binding are weak or reduced against the parent protein; the word gives no strength.

Sequences of proteins named here, by UniProt entry; tags and fusion partners are left off.
UniProt P84024: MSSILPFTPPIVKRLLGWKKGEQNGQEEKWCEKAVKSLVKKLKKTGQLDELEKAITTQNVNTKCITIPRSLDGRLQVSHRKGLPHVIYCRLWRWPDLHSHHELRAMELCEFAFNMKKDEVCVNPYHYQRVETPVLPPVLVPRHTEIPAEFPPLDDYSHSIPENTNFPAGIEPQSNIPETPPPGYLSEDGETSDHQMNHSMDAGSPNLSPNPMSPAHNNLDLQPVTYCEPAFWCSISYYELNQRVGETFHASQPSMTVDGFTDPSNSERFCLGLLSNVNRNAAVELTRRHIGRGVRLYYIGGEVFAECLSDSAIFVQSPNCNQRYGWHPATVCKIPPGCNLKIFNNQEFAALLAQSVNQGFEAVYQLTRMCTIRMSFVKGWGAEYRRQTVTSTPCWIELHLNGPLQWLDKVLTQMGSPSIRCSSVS
UniProt F1SJP0: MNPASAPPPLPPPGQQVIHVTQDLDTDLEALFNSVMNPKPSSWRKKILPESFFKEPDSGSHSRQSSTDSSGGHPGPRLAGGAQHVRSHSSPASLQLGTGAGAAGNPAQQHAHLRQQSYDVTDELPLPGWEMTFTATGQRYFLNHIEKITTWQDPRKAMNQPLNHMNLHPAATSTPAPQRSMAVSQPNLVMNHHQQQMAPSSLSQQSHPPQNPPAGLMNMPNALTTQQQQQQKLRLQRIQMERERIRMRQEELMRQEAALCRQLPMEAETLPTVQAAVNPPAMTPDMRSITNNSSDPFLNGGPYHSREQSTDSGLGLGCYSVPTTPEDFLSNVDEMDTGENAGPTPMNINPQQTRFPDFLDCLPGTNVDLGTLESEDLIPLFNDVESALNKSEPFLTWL

Biological target: Smad3, endogenous (pig (endogenous in LLC-PK1)) (UniProt P84024)
Assay: co-IP; endogenous proteins, LLC-PK1 cells on BioFlex plates, non-stretch or cyclic stretch 6 h, with or without TGFβ; IPs with antibodies against MRTF, TAZ or Smad3

binding: binds
Substance: TAZ, endogenous (from UniProt F1SJP0 1-398)
